The list shows a part of the results.
Key:
Experiment in all cases: log2 fold change, soluble protein after heating vs DMSO (PISA); higher = thermal stabilisation; K562 cells, 10 uM, 30 min; active = over 0.2 and 3.5 SD of the protein, either way, in both replicates (recomputed)
[1] = compound: CS(=O)(=O)c1ccc(-c2cnc(N)c(C(=O)Nc3ccccc3)n2)cc1
Method in brief: (§1)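 Soluble protein was quantified by TMTpro 16plex LC-MS/MS after channel sums were equalised. It was obtained as the supernatant after 21,000xg for 90 min from pooled aliquots of K562 cells (2×10^6 cells/mL, 10 μM compound, 30 min) heated for 3 min across 48°C-58°C and extracted in PBS with 0.5% NP-40 at 4°C. Thermal stability values are relative to control samples and come from duplicates. They are given as log2 fold changes.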

The chains behind the UniProt entries cited, without tags or fusion partners. Where a name states a change or a piece, a line headed by the entry shows the natural chain unless it says otherwise.
UniProt Q9NX47: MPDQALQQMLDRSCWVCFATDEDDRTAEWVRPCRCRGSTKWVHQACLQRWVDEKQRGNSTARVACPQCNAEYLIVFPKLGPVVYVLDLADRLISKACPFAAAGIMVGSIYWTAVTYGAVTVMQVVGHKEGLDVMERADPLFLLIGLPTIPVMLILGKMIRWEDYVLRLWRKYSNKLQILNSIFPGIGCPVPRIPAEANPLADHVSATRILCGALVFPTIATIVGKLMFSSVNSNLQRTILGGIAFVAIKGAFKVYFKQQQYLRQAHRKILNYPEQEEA
UniProt O15116: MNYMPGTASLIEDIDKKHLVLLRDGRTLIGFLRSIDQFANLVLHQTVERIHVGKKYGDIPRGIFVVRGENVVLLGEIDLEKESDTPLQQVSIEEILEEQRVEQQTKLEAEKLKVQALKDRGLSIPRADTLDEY
UniProt Q9Y4Z0: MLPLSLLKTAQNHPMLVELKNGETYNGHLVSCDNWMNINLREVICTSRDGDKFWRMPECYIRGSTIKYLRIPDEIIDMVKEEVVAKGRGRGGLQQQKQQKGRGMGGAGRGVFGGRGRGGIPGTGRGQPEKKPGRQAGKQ
UniProt Q9Y608: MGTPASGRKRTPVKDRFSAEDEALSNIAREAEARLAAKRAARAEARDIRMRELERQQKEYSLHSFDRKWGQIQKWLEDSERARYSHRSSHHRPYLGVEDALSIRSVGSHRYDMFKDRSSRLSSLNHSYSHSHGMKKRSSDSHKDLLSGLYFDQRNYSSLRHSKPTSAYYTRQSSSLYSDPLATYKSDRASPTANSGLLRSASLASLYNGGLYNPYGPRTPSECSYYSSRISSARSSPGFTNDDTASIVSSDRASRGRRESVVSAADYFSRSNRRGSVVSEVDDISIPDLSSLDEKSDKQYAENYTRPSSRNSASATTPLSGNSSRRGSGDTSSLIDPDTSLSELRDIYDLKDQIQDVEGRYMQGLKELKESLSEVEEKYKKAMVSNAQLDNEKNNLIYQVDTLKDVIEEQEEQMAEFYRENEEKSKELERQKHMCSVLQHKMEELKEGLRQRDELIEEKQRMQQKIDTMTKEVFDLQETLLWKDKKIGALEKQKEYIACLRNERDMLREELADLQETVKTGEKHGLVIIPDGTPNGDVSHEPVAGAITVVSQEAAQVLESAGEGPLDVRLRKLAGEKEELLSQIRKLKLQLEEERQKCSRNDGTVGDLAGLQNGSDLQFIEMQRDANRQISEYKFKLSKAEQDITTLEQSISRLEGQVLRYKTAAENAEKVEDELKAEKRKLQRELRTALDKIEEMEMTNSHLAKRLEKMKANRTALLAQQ
UniProt P02788: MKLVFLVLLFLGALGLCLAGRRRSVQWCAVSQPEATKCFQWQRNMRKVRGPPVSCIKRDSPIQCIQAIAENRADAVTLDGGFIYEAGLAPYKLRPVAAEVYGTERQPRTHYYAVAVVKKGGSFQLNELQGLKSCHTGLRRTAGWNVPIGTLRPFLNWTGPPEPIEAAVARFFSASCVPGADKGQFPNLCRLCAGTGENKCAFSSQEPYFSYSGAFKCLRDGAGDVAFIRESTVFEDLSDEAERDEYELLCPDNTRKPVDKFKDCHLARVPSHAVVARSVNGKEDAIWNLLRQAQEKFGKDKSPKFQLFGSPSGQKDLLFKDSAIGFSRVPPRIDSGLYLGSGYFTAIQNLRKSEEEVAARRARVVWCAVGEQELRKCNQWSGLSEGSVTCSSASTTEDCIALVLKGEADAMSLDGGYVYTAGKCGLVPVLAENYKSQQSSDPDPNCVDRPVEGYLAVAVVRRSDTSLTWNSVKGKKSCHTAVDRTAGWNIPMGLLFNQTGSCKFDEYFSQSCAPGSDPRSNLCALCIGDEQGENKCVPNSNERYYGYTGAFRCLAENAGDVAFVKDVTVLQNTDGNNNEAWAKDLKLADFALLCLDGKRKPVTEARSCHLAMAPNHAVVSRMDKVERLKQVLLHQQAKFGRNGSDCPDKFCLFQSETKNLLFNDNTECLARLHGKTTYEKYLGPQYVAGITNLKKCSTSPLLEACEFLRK
UniProt Q5U5X0: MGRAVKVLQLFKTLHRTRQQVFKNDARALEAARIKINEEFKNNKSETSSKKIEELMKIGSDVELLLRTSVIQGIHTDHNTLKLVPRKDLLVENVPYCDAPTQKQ
UniProt Q14244: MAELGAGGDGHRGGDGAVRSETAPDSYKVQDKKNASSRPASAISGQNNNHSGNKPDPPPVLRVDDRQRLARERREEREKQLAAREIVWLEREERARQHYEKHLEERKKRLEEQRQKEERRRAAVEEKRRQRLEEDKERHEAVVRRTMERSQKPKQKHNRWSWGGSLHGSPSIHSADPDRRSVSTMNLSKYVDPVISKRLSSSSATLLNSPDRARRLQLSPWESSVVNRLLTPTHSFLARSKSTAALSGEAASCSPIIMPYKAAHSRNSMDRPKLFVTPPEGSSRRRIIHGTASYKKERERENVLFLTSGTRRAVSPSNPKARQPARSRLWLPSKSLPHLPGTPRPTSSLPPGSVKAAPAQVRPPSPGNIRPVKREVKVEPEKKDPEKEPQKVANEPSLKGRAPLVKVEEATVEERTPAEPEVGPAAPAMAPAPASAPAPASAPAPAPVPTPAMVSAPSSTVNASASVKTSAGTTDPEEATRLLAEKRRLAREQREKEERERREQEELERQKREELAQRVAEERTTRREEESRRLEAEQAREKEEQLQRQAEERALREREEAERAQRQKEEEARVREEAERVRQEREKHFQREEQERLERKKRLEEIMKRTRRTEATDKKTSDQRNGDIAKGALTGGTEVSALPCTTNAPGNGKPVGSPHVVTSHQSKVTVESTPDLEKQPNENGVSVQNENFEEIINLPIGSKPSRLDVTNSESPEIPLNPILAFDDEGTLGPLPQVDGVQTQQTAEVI
UniProt Q9HD34: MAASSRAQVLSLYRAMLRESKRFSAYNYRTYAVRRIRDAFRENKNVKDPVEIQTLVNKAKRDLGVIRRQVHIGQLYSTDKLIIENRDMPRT
UniProt P78559: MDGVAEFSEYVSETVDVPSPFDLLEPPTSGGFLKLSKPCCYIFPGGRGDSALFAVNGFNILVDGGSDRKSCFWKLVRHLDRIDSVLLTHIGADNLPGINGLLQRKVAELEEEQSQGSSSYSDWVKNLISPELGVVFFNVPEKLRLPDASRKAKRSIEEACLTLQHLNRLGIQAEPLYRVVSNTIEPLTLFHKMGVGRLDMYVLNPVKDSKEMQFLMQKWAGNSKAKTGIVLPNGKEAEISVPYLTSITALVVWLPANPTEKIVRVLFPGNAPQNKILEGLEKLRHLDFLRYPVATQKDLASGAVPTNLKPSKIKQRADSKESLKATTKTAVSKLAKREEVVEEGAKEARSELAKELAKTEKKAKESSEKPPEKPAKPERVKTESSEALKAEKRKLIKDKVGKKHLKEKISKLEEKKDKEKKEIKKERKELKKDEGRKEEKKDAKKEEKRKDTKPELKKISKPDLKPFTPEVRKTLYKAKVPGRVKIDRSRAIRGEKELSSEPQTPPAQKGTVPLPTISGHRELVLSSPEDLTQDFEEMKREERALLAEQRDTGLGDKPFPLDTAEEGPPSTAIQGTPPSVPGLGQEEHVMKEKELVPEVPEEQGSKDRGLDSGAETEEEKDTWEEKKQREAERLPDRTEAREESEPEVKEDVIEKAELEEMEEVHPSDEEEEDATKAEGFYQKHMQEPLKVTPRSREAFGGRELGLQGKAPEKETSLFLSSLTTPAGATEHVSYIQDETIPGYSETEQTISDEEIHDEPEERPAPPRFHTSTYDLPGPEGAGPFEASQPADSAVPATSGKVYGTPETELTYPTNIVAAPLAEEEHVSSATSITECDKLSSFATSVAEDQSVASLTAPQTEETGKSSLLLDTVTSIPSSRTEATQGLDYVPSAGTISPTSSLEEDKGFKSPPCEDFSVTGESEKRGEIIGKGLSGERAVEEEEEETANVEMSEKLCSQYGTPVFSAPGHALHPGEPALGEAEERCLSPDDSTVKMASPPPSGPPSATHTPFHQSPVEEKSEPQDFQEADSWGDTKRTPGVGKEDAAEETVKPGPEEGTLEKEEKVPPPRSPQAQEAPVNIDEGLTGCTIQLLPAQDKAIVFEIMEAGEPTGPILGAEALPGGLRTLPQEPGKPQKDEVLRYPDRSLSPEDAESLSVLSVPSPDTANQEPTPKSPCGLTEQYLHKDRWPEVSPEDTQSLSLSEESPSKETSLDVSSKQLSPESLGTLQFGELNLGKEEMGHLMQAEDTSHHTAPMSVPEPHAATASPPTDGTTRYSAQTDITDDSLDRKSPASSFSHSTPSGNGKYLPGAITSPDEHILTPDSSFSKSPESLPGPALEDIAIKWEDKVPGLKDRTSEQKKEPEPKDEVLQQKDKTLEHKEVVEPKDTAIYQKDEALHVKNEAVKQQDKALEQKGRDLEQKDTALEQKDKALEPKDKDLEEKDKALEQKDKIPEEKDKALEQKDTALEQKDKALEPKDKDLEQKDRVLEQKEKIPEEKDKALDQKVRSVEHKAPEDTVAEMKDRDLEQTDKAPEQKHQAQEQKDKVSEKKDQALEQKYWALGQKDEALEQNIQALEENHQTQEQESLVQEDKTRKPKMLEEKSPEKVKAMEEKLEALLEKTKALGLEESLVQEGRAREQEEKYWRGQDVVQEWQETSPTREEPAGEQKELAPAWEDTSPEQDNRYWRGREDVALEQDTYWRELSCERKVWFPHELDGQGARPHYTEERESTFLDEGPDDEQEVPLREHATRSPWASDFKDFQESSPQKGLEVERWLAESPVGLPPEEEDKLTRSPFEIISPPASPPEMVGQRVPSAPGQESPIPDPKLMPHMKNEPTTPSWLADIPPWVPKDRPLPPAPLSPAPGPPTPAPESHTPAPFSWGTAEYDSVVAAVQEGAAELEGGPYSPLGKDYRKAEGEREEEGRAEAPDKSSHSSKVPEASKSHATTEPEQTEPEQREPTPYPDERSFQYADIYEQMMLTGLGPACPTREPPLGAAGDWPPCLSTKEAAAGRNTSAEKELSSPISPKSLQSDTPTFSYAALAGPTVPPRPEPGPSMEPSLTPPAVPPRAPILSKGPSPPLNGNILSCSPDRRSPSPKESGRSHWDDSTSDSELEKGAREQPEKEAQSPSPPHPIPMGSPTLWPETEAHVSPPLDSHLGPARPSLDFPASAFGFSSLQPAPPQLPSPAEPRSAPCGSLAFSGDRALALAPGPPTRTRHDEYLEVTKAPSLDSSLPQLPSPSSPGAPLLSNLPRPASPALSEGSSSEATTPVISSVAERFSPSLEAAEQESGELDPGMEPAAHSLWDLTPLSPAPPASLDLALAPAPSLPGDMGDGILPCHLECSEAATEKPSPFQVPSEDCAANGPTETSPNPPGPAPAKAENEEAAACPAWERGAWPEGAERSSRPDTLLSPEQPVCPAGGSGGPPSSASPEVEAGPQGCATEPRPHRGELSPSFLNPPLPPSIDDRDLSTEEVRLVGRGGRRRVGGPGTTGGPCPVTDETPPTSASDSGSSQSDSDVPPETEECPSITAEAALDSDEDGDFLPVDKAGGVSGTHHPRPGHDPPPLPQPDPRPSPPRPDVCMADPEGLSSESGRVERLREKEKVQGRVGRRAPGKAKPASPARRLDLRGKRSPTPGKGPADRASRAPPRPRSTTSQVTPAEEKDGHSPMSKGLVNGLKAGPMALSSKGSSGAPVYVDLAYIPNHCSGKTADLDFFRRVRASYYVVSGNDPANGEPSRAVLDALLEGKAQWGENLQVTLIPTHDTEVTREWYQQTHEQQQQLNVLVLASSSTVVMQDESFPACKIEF
UniProt P28482, whole entry, looked up: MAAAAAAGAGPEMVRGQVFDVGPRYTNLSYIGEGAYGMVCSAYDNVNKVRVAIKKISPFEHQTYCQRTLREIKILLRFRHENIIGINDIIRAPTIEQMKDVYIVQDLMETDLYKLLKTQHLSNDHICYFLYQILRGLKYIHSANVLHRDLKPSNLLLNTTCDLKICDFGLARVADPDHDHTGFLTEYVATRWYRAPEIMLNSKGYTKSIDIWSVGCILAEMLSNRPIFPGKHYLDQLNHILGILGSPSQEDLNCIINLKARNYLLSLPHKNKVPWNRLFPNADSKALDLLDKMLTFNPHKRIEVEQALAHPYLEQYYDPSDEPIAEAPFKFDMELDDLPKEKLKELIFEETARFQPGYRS
UniProt Q9H0U3: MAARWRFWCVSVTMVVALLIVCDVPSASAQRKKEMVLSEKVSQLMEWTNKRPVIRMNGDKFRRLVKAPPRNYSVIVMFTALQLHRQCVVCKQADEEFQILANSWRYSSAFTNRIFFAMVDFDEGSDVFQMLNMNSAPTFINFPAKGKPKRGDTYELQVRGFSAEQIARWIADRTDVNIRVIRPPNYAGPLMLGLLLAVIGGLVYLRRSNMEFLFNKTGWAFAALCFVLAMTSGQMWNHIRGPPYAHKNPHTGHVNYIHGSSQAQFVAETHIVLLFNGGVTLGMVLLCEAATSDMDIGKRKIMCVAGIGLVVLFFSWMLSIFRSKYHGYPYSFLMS

[2] = compound: C[C@@H](Oc1cc(-c2cnn(C3CCNCC3)c2)cnc1N)c1c(Cl)ccc(F)c1Cl [crizotinib]
Method in brief: as §1

[3] = compound: C[C@@H]1COCCN1C2=NC(=NC(=C2)C3(CC3)S(=O)(=O)C)C4=C5C=CNC5=CC=C4
Method in brief: as §1

[4] = compound: C[C@H](C1=CC=C(C=C1)C(=O)NC2=C3C=CNC3=NC=C2)N
Method in brief: as §1

[5] = compound: C[C@H](Nc1ncnc2nc[nH]c12)c1cc2cccc(Cl)c2c(=O)n1-c1ccccc1 [duvelisib]
Method in brief: as §1

[6] = compound: Cc1cc(Nc2cc(CN3CCOCC3)c3nc(C)c(Cc4ccc(Cl)cc4F)n3n2)n[nH]1 [gandotinib]
Method in brief: as §1

[7] = compound: Cc1cc(Nc2cc(N3CCN(C)CC3)nc(Sc3ccc(NC(=O)C4CC4)cc3)n2)n[nH]1 [tozasertib]
Method in brief: as §1

[8] = compound: Cc1cc(SCc2sc(-c3ccc(C(F)(F)F)cc3)nc2C)ccc1OCC(=O)O
Method in brief: as §1

[9] = compound: Cc1ccc(-n2nc(C(C)(C)C)cc2NC(=O)Nc2ccc(OCCN3CCOCC3)c3ccccc23)cc1 [doramapimod]
Method in brief: as §1

[10] = compound: Cc1ccc(C(=O)N(CCCN)[C@@H](c2nc3cc(Cl)ccc3c(=O)n2Cc2ccccc2)C(C)C)cc1 [ispinesib]
Method in brief: as §1

[11] = compound: Cc1ccc(NC(=O)c2ccc(CN3CC[C@H](N(C)C)C3)c(C(F)(F)F)c2)cc1Nc1nccc(-c2cncnc2)n1 [bafetinib]
Method in brief: as §1

[12] = compound: Cc1cccc(CC(=O)N2CCc3c2ccc(-c2cn(C)c4ncnc(N)c24)c3F)n1
Method in brief: as §1

[13] = compound: Cc1cn(-c2cc(NC(=O)c3ccc(C)c(Nc4nccc(-c5cccnc5)n4)c3)cc(C(F)(F)F)c2)cn1 [nilotinib]
Method in brief: as §1

[14] = compound: Cc1nc(Nc2n[nH]c3c2CN(C(=O)N[C@H](CN(C)C)c2ccccc2)C3(C)C)c2sccc2n1
Method in brief: as §1

[15] = compound: Cc1nc(Nc2ncc(C(=O)Nc3c(C)cccc3Cl)s2)cc(N2CCN(CCO)CC2)n1 [dasatinib]
Method in brief: as §1

[16] = compound: Cc1ncc(-c2ccnc(Nc3ccc(S(C)(=O)=O)cc3)n2)n1C(C)C
Method in brief: as §1

[17] = compound: Cn1cc(-c2ccc3c(c2)CCN3C(=O)Cc2cccc(C(F)(F)F)c2)c2c(N)ncnc21
Method in brief: as §1

[18] = compound: Cn1cc(-c2ccc3nnc(C(F)(F)c4ccc5ncccc5c4)n3n2)cn1
Method in brief: as §1

[19] = compound: Cn1cncc1[C@@](N)(c1ccc(Cl)cc1)c1ccc2c(c1)c(-c1cccc(Cl)c1)cc(=O)n2C [tipifarnib]
Method in brief: as §1

[20] = compound: FC(F)(F)c1ccc(/C=C/c2nc(COc3ccc(CCCCn4ccnn4)cc3)co2)cc1 [mubritinib]
Method in brief: as §1

Measured: log2 fold change

MARCHF5 (UniProt Q9NX47)
inactive: [1] 0.019 | [2] 0.006 | [3] -0.064 | [4] -0.062 | [5] 0 | [6] 0.024 | [7] -0.013 | [8] -0.037 | [9] -0.015 | [10] 0.03 | [11] -0.04 | [12] -0.028 | [13] 0.031 | [14] 0.032 | [15] 0.034 | [16] -0.017 | [17] 0.007 | [18] 0.008 | [19] 0.03 | [20] -0.041

MANEA (UniProt Q5SRI9)
inactive: [1] 0.028 | [2] 0.044 | [3] 0.191 | [4] 0.007 | [5] 0.013 | [6] -0.114 | [7] -0.027 | [8] 0.113 | [9] -0.175 | [10] 0.024 | [11] 0.06 | [12] -0.162 | [13] 0.037 | [14] -0.005 | [15] 0.092 | [16] 0.026 | [17] -0.041 | [18] -0.047 | [19] 0.039 | [20] 0.011

LSM1 (UniProt O15116)
inactive: [1] 0.018 | [2] 0.139 | [3] 0.083 | [4] -0.06 | [5] 0.07 | [6] 0.077 | [7] 0.033 | [8] -0.02 | [9] 0.037 | [10] 0.098 | [11] -0.049 | [12] -0.008 | [13] 0.004 | [14] -0.063 | [15] 0.04 | [16] -0.008 | [17] 0.103 | [18] 0.12 | [19] 0.033 | [20] 0.072

LSM4 (UniProt Q9Y4Z0)
inactive: [1] -0.019 | [2] 0.041 | [3] -0.022 | [4] -0.032 | [5] 0.02 | [6] -0.015 | [7] -0.024 | [8] -0.014 | [9] 0.01 | [10] 0.026 | [11] 0.014 | [12] 0.031 | [13] 0.03 | [14] 0.004 | [15] 0.037 | [16] -0.005 | [17] 0.009 | [18] 0.01 | [19] 0 | [20] 0.032

LRRFIP2 (UniProt Q9Y608)
inactive: [1] 0.009 | [2] 0.052 | [3] 0.036 | [4] -0.009 | [5] 0.055 | [6] 0.159 | [7] -0.042 | [8] -0.06 | [9] -0.007 | [10] 0.081 | [11] -0.019 | [12] -0.063 | [13] 0.11 | [14] -0.037 | [15] 0.023 | [16] 0.003 | [17] -0.011 | [18] 0.037 | [19] 0.055 | [20] 0.004

LTF (UniProt P02788)
inactive: [1] -0.123 | [2] 0.089 | [3] -0.068 | [4] 0.19 | [5] -0.27 | [6] -0.039 | [7] -0.065 | [8] -0.11 | [9] 0.169 | [10] 0.146 | [11] 0.437 | [12] -0.029 | [13] 0.043 | [14] -0.008 | [15] 0.05 | [16] 0.451 | [17] 0.116 | [18] -0.038 | [19] 0.015 | [20] -0.26

LYRM7 (UniProt Q5U5X0)
inactive: [1] 0 | [2] -0.017 | [3] 0.07 | [4] -0.041 | [5] 0.027 | [6] -0.056 | [7] 0.046 | [8] 0.007 | [9] -0.018 | [10] 0.084 | [11] -0.021 | [12] 0.015 | [13] 0.025 | [14] 0.035 | [15] -0.015 | [16] -0.027 | [17] 0.049 | [18] -0.034 | [19] 0.001 | [20] -0.032

MAP7 isoform 7 (UniProt Q14244)
inactive: [1] -0.089 | [2] 0 | [3] -0.43 | [4] 0.356 | [5] -0.155 | [6] 0.121 | [7] 0.004 | [8] 0.024 | [9] 0.21 | [10] -0.199 | [11] 0.17 | [12] -0.024 | [13] 0.006 | [14] 0.145 | [15] 0.155 | [16] -0.091 | [17] -0.261 | [18] -0.08 | [19] 0.126 | [20] -0.101

LYRM4 (UniProt Q9HD34)
inactive: [1] -0.01 | [2] -0.015 | [3] -0.032 | [4] -0.015 | [5] 0.017 | [6] -0.071 | [7] -0.02 | [8] -0.009 | [9] 0.002 | [10] 0.043 | [11] -0.016 | [12] 0.011 | [13] -0.001 | [14] 0.041 | [15] -0.101 | [16] 0.022 | [17] 0.023 | [18] 0.063 | [19] -0.087 | [20] 0.047

MAP1A isoform 2 (UniProt P78559)
inactive: [1] 0.052 | [2] -0.038 | [3] -0.152 | [4] 0.257 | [5] -0.102 | [6] 0.064 | [7] 0.024 | [8] 0.035 | [9] 0.184 | [10] -0.118 | [11] 0.034 | [12] 0.002 | [13] -0.009 | [14] 0.058 | [15] 0.02 | [16] -0.064 | [17] -0.093 | [18] 0.007 | [19] 0.09 | [20] -0.043

MAEA (UniProt Q7L5Y9)
inactive: [1] -0.038 | [2] 0.042 | [3] 0.019 | [4] 0.011 | [5] -0.051 | [6] 0.019 | [7] 0.094 | [8] 0.001 | [9] 0.044 | [10] -0.002 | [11] -0.001 | [12] -0.01 | [13] -0.023 | [14] -0.021 | [15] 0.007 | [16] 0.02 | [17] -0.045 | [18] 0.003 | [19] 0.008 | [20] 0.002

MAPK1 (UniProt P28482)
inactive: [1] -0.006 | [2] 0.004 | [3] 0.047 | [4] -0.06 | [5] 0.002 | [6] -0.043 | [7] -0.008 | [8] -0.01 | [9] -0.018 | [10] 0.04 | [11] -0.027 | [12] -0.005 | [13] -0.019 | [14] 0.02 | [15] 0.021 | [16] -0.024 | [17] 0.019 | [18] 0.033 | [19] -0.009 | [20] 0.04

MALSU1 (UniProt Q96EH3)
inactive: [1] -0.026 | [2] -0.055 | [3] -0.008 | [4] -0.04 | [5] 0.08 | [6] -0.008 | [7] -0.002 | [8] 0.048 | [9] 0.098 | [10] 0.028 | [11] -0.011 | [12] -0.004 | [13] 0 | [14] -0.017 | [15] -0.128 | [16] -0.014 | [17] -0.025 | [18] -0.007 | [19] 0.045 | [20] -0.004

MAN1A2 (UniProt O60476)
inactive: [1] -0.01 | [2] 0.016 | [3] 0.044 | [4] 0.006 | [5] 0.017 | [6] -0.059 | [7] -0.012 | [8] 0.003 | [9] -0.026 | [10] -0.041 | [11] -0.112 | [12] -0.005 | [13] -0.005 | [14] -0.014 | [15] -0.011 | [16] 0.009 | [17] 0.021 | [18] 0.065 | [19] 0.012 | [20] 0.012

MAGT1 (UniProt Q9H0U3)
inactive: [1] 0.021 | [2] 0.029 | [3] -0.013 | [4] 0.093 | [5] -0.025 | [6] 0.033 | [7] 0.029 | [8] 0.011 | [9] 0.029 | [10] -0.017 | [11] -0.059 | [12] -0.001 | [13] -0.012 | [14] 0.029 | [15] 0.018 | [16] -0.067 | [17] -0.045 | [18] 0.038 | [19] 0.014 | [20] -0.041

Source: the supplement of paper PMC10849652
